Experimental data from paper PMC4974783.

Experiments:
[1] = biological target: FLAG-tagged ΔCDCP1, deletion mutant that mimics the cleaved form of CDCP1; experiment: co-IP; anti-FLAG agarose from MDA-MB-231-derived E-cadherin-GST lines with or without γ-catenin coexpression, transduced with ΔCDCP1-FLAG adenovirus; immunoblot
[2] = biological target: FLAG-tagged ΔCDCP1, deletion mutant that mimics the cleaved form of CDCP1; experiment: co-IP; anti-FLAG agarose from AsPC1 or PANC1 pancreatic cancer cells transduced with adenoviral vectors, immunoblot; AsPC1 also extracted with 1 % Triton X100, IGE-PAL, CHAPS, sodium deoxycholate, Brij 35 or sodium dodecylsulfate
[3] = biological target: FLAG-tagged ΔCDCP1, deletion mutant that mimics the cleaved form of CDCP1; experiment: co-IP; anti-FLAG agarose from MDA-MB-231 or T47D cells transduced with adenoviral vectors, immunoblot
[4] = biological target: FLAG-tagged ΔCDCP1, deletion mutant that mimics the cleaved form of CDCP1; experiment: co-IP + pull-down; sequential affinity purification, anti-FLAG agarose followed by glutathione-agarose, from MDA-MB-231 or T47D cells stably expressing E-cad-GST and transduced with ΔCDCP1-FLAG adenovirus; immunoblot

binding [1]: binds
binding [2]: binds
binding [3]: binds
B1: γ-catenin, endogenous (protein, UniProt P14923 1-745)
chain: MEVMNLMEQPIKVTEWQQTYTYDSGIHSGANTCVPSVSSKGIMEEDEACGRQYTLKKTTTYTQGVPPSQGDLEYQMSTTARAKRVREAMCPGVSGEDSSLLLATQVEGQATNLQRLAEPSQLLKSAIVHLINYQDDAELATRALPELTKLLNDEDPVVVTKAAMIVNQLSKKEASRRALMGSPQLVAAVVRTMQNTSDLDTARCTTSILHNLSHHREGLLAIFKSGGIPALVRMLSSPVESVLFYAITTLHNLLLYQEGAKMAVRLADGLQKMVPLLNKNNPKFLAITTDCLQLLAYGNQESKLIILANGGPQALVQIMRNYSYEKLLWTTSRVLKVLSVCPSNKPAIVEAGGMQALGKHLTSNSPRLVQNCLWTLRNLSDVATKQEGLESVLKILVNQLSVDDVNVLTCATGTLSNLTCNNSKNKTLVTQNSGVEALIHAILRAGDKDDITEPAVCALRHLTSRHPEAEMAQNSVRLNYGIPAIVKLLNQPNQWPLVKATIGLIRNLALCPANHAPLQEAAVIPRLVQLLVKAHQDAQRHVAAGTQQPYTDGVRMEEIVEGCTGALHILARDPMNRMEIFRLNTIPLFVQLLYSSVENIQRVAAGVLCELAQDKEAADAIDAEGASAPLMELLHSRNEGTATYAAAVLFRISEDKNPDYRKRVSVELTNSLFKHDPAAWEAAQSMIPINEPYGDDMDATYRPMYSSDVPLDPLEMHMDMDGDYPIDTYSDGLRPPYPTADHMLA

binding [1]: binds
B2: γ-catenin, overexpressed (protein, UniProt P14923 1-745)
chain: B1 chain

binding [4]: no binding
B3: p120 catenin (protein, UniProt O60716 1-968)
chain: MDDSEVESTASILASVKEQEAQFEKLTRALEEERRHVSAQLERVRVSPQDANPLMANGTLTRRHQNGRFVGDADLERQKFSDLKLNGPQDHSHLLYSTIPRMQEPGQIVETYTEEDPEGAMSVVSVETSDDGTTRRTETTVKKVVKTVTTRTVQPVAMGPDGLPVDASSVSNNYIQTLGRDFRKNGNGGPGPYVGQAGTATLPRNFHYPPDGYSRHYEDGYPGGSDNYGSLSRVTRIEERYRPSMEGYRAPSRQDVYGPQPQVRVGGSSVDLHRFHPEPYGLEDDQRSMGYDDLDYGMMSDYGTARRTGTPSDPRRRLRSYEDMIGEEVPSDQYYWAPLAQHERGSLASLDSLRKGGPPPPNWRQPELPEVIAMLGFRLDAVKSNAAAYLQHLCYRNDKVKTDVRKLKGIPVLVGLLDHPKKEVHLGACGALKNISFGRDQDNKIAIKNCDGVPALVRLLRKARDMDLTEVITGTLWNLSSHDSIKMEIVDHALHALTDEVIIPHSGWEREPNEDCKPRHIEWESVLTNTAGCLRNVSSERSEARRKLRECDGLVDALIFIVQAEIGQKDSDSKLVENCVCLLRNLSYQVHREIPQAERYQEAAPNVANNTGPHAASCFGAKKGKDEWFSRGKKPIEDPANDTVDFPKRTSPARGYELLFQPEVVRIYISLLKESKTPAILEASAGAIQNLCAGRWTYGRYIRSALRQEKALSAIADLLTNEHERVVKAASGALRNLAVDARNKELIGKHAIPNLVKNLPGGQQNSSWNFSEDTVISILNTINEVIAENLEAAKKLRETQGIEKLVLINKSGNRSEKEVRAAALVLQTIWGYKELRKPLEKEGWKKSDFQVNLNNASRSQSSHSYDDSTLPLIDRNQKSDKKPDREEIQMSNMGSNTKSLDNNYSTPNERGDHNRTLDRSGDLGDMEPLKGTTPLMQDEGQESLEEELDVLVLDDEGGQVSYPSMQKI

No constants are given. Whether binding was seen depends on the method and setting. Binding seen in cells or lysates may run through a third protein. For some assays here: Binding calls can cover weak binding; strength is not graded here. Each block holds one binder with its values, some of them ahead of it.
